Data reported in PMC6199744, “Development of Chemical Proteomics for the Folateome and Analysis of the Kinetoplastid Folateome” (ACS Infectious Diseases, 2018).
The source gives many values for each of these; only a part stands here.

System: L. major lysate proteins
Experiment: Multitargeted bead mixture chemoproteomics, single concentration competition, proteome-wide
Type: binding
Conditions: vehicle control = 1

CCCCCCOc1cccc(Cc2cnc(N)nc2N)c1 [compound 2]
fold change (LINJ.11.0960 40S RIBOSOMAL PROTEIN S5): 0.94 | fold change (LINJ.11.1180 40S RIBOSOMAL PROTEIN S15A, PUTATIVE): 1.25 | fold change (LINJ.15.1170 HYPOTHETICAL PROTEIN, CONSERVED): 0.98 | fold change (LINJ.18.0270 GLYCOGEN SYNTHASE KINASE 3): 0.8 | fold change (LINJ.21.1790 40S RIBOSOMAL PROTEIN S11, PUTATIVE): 1.06 | fold change (LINJ.22.0180 HYPOTHETICAL PROTEIN, CONSERVED): 0.79 | fold change (LINJ.25.2170 HY[…], CONSERVED): 1.15 | fold change (LINJ.28.2870 PROTEIN PHOSPHATASE 4 CATALYTIC SUBUNIT, PUTATIVE): 0.73 | fold change (LINJ.29.0020 TRANSCRIPTION FACTOR-LIKE PROTEIN): 0.82 | fold change (LINJ.29.0110 HYPOTHETICAL PROTEIN, CONSERVED): 0.65 | fold change (LINJ.33.0960 40S RIBOSOMAL PROTEIN S3, PUTATIVE): 1.18 | fold change (LINJ.35.1820 HYPOTHETICAL PROTEIN, CONSERVED): 0.84 | fold change (LINJ.35.2240 RNA-BINDING PROTEIN, PUTATIVE): 0.8 | fold change (LINJ.36.1160 RIBOSOMAL PROTEIN L24, PUTATIVE): 1.03 | fold change (LINJ.36.1580 HYPOTHETICAL PROTEIN, CONSERVED,NIMA-RELATED PROTEIN KINASE, PUTATIVE): 0.92 | fold change (LMJF.01.0570 TRIC[…], PUTATIVE): 0.94 | fold change (LMJF.03.0190 U2 SPLICING AUXILIARY FACTOR, PUTATIVE): 1 | fold change (LMJF.03.0540 26S PROTEASE […], PUTATIVE): 1.35 | fold change (LMJF.05.0280 PROTEIN TYROSINE PHOSPHATASE, PUTATIVE): 0.99 | fold change (LMJF.05.1140 VACUOLAR ATPASE SUBUNIT-LIKE PROTEIN): 0.83 | fold change (LMJF.06.0370 GLUTAMINE SYNTHETASE, PUTATIVE): 0.97 | fold change (LMJF.07.1050 CATION-TRANSPORTING ATPASE, PUTATIVE): 0.99 | fold change (LMJF.08.0410 HYPOTHETICAL PROTEIN, CONSERVED): 0.83 | fold change (LMJF.08.1130 PHOSPHORIBOSYLPYROPHOSPHATE SYNTHETASE): 0.94 | fold change (LMJF.10.0310 PROTEIN TRANSPORT PROTEIN SEC23, PUTATIVE): 1.13 | fold change (LMJF.10.0910 SMALL GTP-BINDING PROTEIN RAB11, PUTATIVE): 0.96 | fold change (LMJF.11.0590 3-[…]-COA C[…] SUBUNIT, PUTATIVE): 1 | fold change (LMJF.11.1000 PYRUVATE PHOSPHATE DIKINASE, PUTATIVE): 1.03 | fold change (LMJF.11.1030 HY[…], CONSERVED): 1.08 | fold change (LMJF.13.1230 40S RIBOSOMAL PROTEIN S4, PUTATIVE): 1.08 | fold change (LMJF.14.0670 FATTY ACID ELONGASE, PUTATIVE): 1.02 | fold change (LMJF.14.1320 SERINE HYDROXYMETHYLTRANFERASE (SHMT-S)): 0.97 | fold change (LMJF.15.0040 HYPOTHETICAL PROTEIN, CONSERVED): 0.99 | fold change (LMJF.15.0970 NAD/FAD DEPENDENT DEHYDROGENASE, PUTATIVE): 1.36 | fold change (LMJF.16.0440 FUCOSE KINASE, PUTATIVE): 0.91 | fold change (LMJF.16.0550 OROTIDINE-5-PHOSPHATE DECARBOXYLASE/OROTATE PHOSPHORIBOSYLTRANSFERASE, PUTATIVE): 1.03 | fold change (LMJF.17.1290 T[…], PUTATIVE): 1.05 | fold change (LMJF.18.0700 HYPOTHETICAL PROTEIN, CONSERVED): 0.89 | fold change (LMJF.18.1090 CAMP PHOSPHODIESTERASE A, PUTATIVE): 0.89 | fold change (LMJF.18.1280 HY[…], CONSERVED): 1.16 | fold change (LMJF.18.1510 P-TYPE H -ATPASE, PUTATIVE): 1.16 | fold change (LMJF.19.0200 ADP,ATP CARRIER PROTEIN 1, MIT[…], PUTATIVE): 1.15 | fold change (LMJF.19.1510 HYPOTHETICAL PROTEIN, CONSERVED): 1.28 | fold change (LMJF.20.1180 CALPAIN-LIKE CYSTEINE PEPTIDASE, PUTATIVE): 0.95 | fold change (LMJF.21.0015 HISTONE H4): 1.02 | fold change (LMJF.21.0250 HEXOKINASE, PUTATIVE): 1.03 | fold change (LMJF.21.0820 HY[…], CONSERVED): 0.95 | fold change (LMJF.21.1450 ARGININE N-METHYLTRANSFERASE, TYPE II, PUTATIVE): 0.78 | fold change (LMJF.21.1770 ATP SYNTHASE F1 SUBUNIT GAMMA PROTEIN, PUTATIVE): 1.26 | fold change (LMJF.21.1860 BETA TUBULIN): 1.14 | fold change (LMJF.22.0770 NADH-CYTOCHROME B5 REDUCTASE, PUTATIVE): 1.1 | fold change (LMJF.22.0990 HY[…], CONSERVED): 1.01 | fold change (LMJF.22.1630 CCR4 ASSOCIATED FACTOR, PUTATIVE): 0.78 | fold change (LMJF.23.0080 HYPOTHETICAL PROTEIN, CONSERVED): 0.87 | fold change (LMJF.23.0110 GDP-MANNOSE PYROPHOSPHORYLASE): 0.83 | fold change (LMJF.23.0210 ATP-BINDING CASSETTE PROTEIN SUBFAMILY C, MEMBER 1, PUTATIVE): 0.9 | fold change (LMJF.23.0640 HYPOTHETICAL PROTEIN, CONSERVED): 0.82 | fold change (LMJF.24.0070 HYPOTHETICAL PROTEIN, CONSERVED): 0.97 | fold change (LMJF.27.0130 HYPOTHETICAL PROTEIN, CONSERVED): 1.28 | fold change (LMJF.27.0650 HY[…], CONSERVED): 1.2 | fold change (LMJF.28.2510 ACYL-COA DEHYDROGENASE, PUTATIVE): 0.94 | fold change (LMJF.29.1500 HYPOTHETICAL PROTEIN, CONSERVED): 0.98 | fold change (LMJF.29.2200 GTP-BINDING PROTEIN, PUTATIVE): 0.98
